We go through 3 molecules from publication PMC3887067.

Amino acid sequences for entries named in this document (tags omitted).
UniProt Q13526: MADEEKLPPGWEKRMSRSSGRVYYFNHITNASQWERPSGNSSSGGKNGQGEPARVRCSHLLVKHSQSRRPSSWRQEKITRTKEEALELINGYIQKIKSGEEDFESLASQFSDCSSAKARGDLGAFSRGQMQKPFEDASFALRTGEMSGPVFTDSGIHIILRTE

For assay [1], the target named is peptidyl-prolyl cis/trans isomerase NIMA-interacting 1 (Pin1) (human (endogenous in HEK293T)) (UniProt Q13526). As to the kind of experiment: co-IP; endogenous Pin1 immunoprecipitated with anti-Pin1 antibody (anti-HA as control) from pre-cleared HEK293T lysate in RIPA buffer, Protein A/G magnetic beads, overnight at 4°C, with or without 10 μg/mL RNaseA; bound proteins detected by western blot. Background: In western blotting, separated proteins are transferred to a membrane and probed.

The target in assay [2] is peptidyl-prolyl cis/trans isomerase NIMA-interacting 1 (Pin1) (human (endogenous in HEK293T)), Q13526. The description is as above. Conditions: remark: other sources report otherwise.

Results are given in words; binding and its absence hold for the method and conditions named. Binding seen in cells or lysates may run through a third protein.

B1: TIAR (protein, UniProt Q01085 1-375)
chain: MMEDDGQPRTLYVGNLSRDVTEVLILQLFSQIGPCKSCKMITEHTSNDPYCFVEFYEHRDAAAALAAMNGRKILGKEVKVNWATTPSSQKKDTSNHFHVFVGDLSPEITTEDIKSAFAPFGKISDARVVKDMATGKSKGYGFVSFYNKLDAENAIVHMGGQWLGGRQIRTNWATRKPPAPKSTQENNTKQLRFEDVVNQSSPKNCTVYCGGIASGLTDQLMRQTFSPFGQIMEIRVFPEKGYSFVRFSTHESAAHAIVSVNGTTIEGHVVKCYWGKESPDMTKNFQQVDYSQWGQWSQVYGNPQQYGQYMANGWQVPPYGVYGQPWNQQGFGVDQSPSAAWMGGFGAQPPQGQAPPPVIPPPNQAGYGMASYQTQ
As to B1, the binding entry in assay [1] is on record as “no binding”.

B2: TIA1 (protein, UniProt P31483 1-386)
chain: MEDEMPKTLYVGNLSRDVTEALILQLFSQIGPCKNCKMIMDTAGNDPYCFVEFHEHRHAAAALAAMNGRKIMGKEVKVNWATTPSSQKKDTSSSTVVSTQRSQDHFHVFVGDLSPEITTEDIKAAFAPFGRISDARVVKDMATGKSKGYGFVSFFNKWDAENAIQQMGGQWLGGRQIRTNWATRKPPAPKSTYESNTKQLSYDEVVNQSSPSNCTVYCGGVTSGLTEQLMRQTFSPFGQIMEIRVFPDKGYSFVRFNSHESAAHAIVSVNGTTIEGHVVKCYWGKETLDMINPVQQQNQIGYPQPYGQWGQWYGNAQQIGQYMPNGWQVPAYGMYGQAWNQQGFNQTQSSAPWMGPNYGVQPPQGQNGSMLPNQPSGYRVAGYETQ
Consider B2, for which the binding entry in assay [1] is listed as “no binding”.

B3: K-homology splicing regulator protein (KSRP), Q92945 1-711 (protein)
chain: MSDYSTGGPPPGPPPPAGGGGGAGGAGGGPPPGPPGAGDRGGGGPGGGGPGGGSAGGPSQPPGGGGPGIRKDAFADAVQRARQIAAKIGGDAATTVNNSTPDFGFGGQKRQLEDGDQPESKKLASQGDSISSQLGPIHPPPRTSMTEEYRVPDGMVGLIIGRGGEQINKIQQDSGCKVQISPDSGGLPERSVSLTGAPESVQKAKMMLDDIVSRGRGGPPGQFHDNANGGQNGTVQEIMIPAGKAGLVIGKGGETIKQLQERAGVKMILIQDGSQNTNVDKPLRIIGDPYKVQQACEMVMDILRERDQGGFGDRNEYGSRIGGGIDVPVPRHSVGVVIGRSGEMIKKIQNDAGVRIQFKQDDGTGPEKIAHIMGPPDRCEHAARIINDLLQSLRSGPPGPPGGPGMPPGGRGRGRGQGNWGPPGGEMTFSIPTHKCGLVIGRGGENVKAINQQTGAFVEISRQLPPNGDPNFKLFIIRGSPQQIDHAKQLIEEKIEGPLCPVGPGPGGPGPAGPMGPFNPGPFNQGPPGAPPHAGGPPPHQYPPQGWGNTYPQWQPPAPHDPSKAAAAAADPNAAWAAYYSHYYQQPPGPVPGPAPAPAAPPAQGEPPQPPPTGQSDYTKAWEEYYKKIGQQPQQPGAPPQQDYTKAWEEYYKKQAQVATGGGPGAPPGSQPDYSAAWAEYYRQQAAYYGQTPGPGGPQPPPTQQGQQQAQ
Consider B3, for which the binding result in assay [2] is “no binding”.
